At least one compound was matched to its structure with a doubt left.
Key:
Escherichia coli = experiment: Traditional culture-based antimicrobial susceptibility test; assay type: cell-based
Description: Table 3 illustrates the results of an example antimicrobial agent susceptibility test of the current application versus a traditional culture-based antimicrobial agent susceptibility test for multiple Escherichia coli isolates, in accordance with one or more embodiments of the disclosure. These specimens underwent extraction or DNA purification prior to PCR. As in Tables 1 and 2, the results of the test of the current application are similar to the results from the traditional test. […]
Table 8 illustrates the results of an example antimicrobial agent susceptibility test of the current application versus a traditional culture-based antimicrobial agent susceptibility test for a low level positive with <10,000 cells/mL in the original specimen. These specimens were tested with direct PCR (e.g., no extraction DNA purification step prior to PCR) after 16 hours of incubation. As in Tables 1, 2, 3, 5, and 7, the results of the test are similar to the traditional test. […]

Acinetobacter baumannii = experiment: as above; assay type: cell-based
Description: Table 2 illustrates the results of an example antimicrobial agent susceptibility test of the current application versus a traditional culture-based antimicrobial agent susceptibility test for […], in accordance with one or more embodiments of the disclosure. This specimen underwent extraction and/or DNA purification prior to PCR. As in Table 1, the results of the test of the current application are similar to the results from the traditional test.
(§1) Result Reporting to Healthcare Providers. The results from the antimicrobial exposure are reported to the ordering healthcare provider. This information can be utilized by the healthcare provider when selecting an antimicrobial regimen for their individual patient based on these individual specimen results and patient specific factors. […] The current standard of care for antimicrobial susceptibility testing involves the growth, isolation, and exposure of pathogens to antimicrobials. This traditional culture and sensitivity process can take multiple days to obtain results, limiting the ability of healthcare providers to receive timely results to make actionable changes in patient care or management. Healthcare providers desire a method to obtain antimicrobial susceptibility results with quicker turn-around-time. This application discloses a molecular-based phenotypic antimicrobial susceptibility method which involves pathogen exposure to a panel of antimicrobial agents at their specified minimum inhibitory concentration breakpoints for sensitivity. This method allows for more timely antimicrobial susceptibility results.

S. aureus = experiment: as above; assay type: cell-based, Staphylococcus aureus; conditions: S. aureus isolate NR-46412 HIP13170
Experimental: (§2) Table 5 illustrates the results of an example antimicrobial agent susceptibility test of the current application versus a traditional culture-based antimicrobial agent susceptibility test for multiple specimens with different pathogens, in accordance with one or more embodiments of the disclosure. These specimens were tested with direct PCR (e.g., no extraction DNA purification step prior to PCR). As in Tables 1, 2, and 3, the results of the test of the current application are similar to the results from the traditional test.
as §1, with “This application discloses a molecular-based phenotypic antimicrobial susceptibility method which involves pathogen exposure to a panel of antimicrobial agents at their specified minimum inhibitory concentration breakpoints for sensitivity. This method allows for more timely antimicrobial susceptibility results.” left out

P. aeruginosa = experiment: as above; assay type: cell-based, Pseudomonas aeruginosa; conditions: P. aeruginosa isolate MRSN1938
Experimental: as §2
as §1, with “This application discloses a molecular-based phenotypic antimicrobial susceptibility method which involves pathogen exposure to a panel of antimicrobial agents at their specified minimum inhibitory concentration breakpoints for sensitivity. This method allows for more timely antimicrobial susceptibility results.” left out

[1] = system: pathogens of clinical samples; experiment: Molecular phenotypic antimicrobial susceptibility test of clinical samples, extraction DNA purification step prior to PCR (Table 6); assay type: cell-based; conditions: for Molecular Antibiotic Susceptibility Result: E. faecalis
Experimental: (§3) Detection of Molecular Phenotypic Antimicrobial Susceptibility. Disclosed herein are the methods for the detection of phenotypic antimicrobial susceptibility via molecular methods. The present invention describes how a specimen 100 with a known microbial load is incubated and then exposed to a panel of antimicrobial agents to determine sensitivity (prevention of growth) or resistance (allowance of growth) to the specific antimicrobial agents tested utilizing molecular methods.
(§4) Sample Collection. Specimens 100 are collected from patients using sterile collection processes that are employed in routine clinical care. Specimens are transported to the testing facility in boric acid preservative.
(§5) Preparation of the Specimens for Testing. […] The process for pathogen isolation includes steps of harvesting the pathogen (e.g., via centrifugation), isolating pathogen DNA via a DNA isolation and/or purification kit, and performing PCR on the pathogen DNA via PCR components (e.g., primers, enzymes, buffers) as would be known to the skilled artisan. […] This aliquot is used for antimicrobial susceptibility testing if indicated based on the pathogen detection results. […] Specimens 100 with lower pathogen loads could also be utilized in the antibiotic susceptibility phase of testing with or without a longer incubation period.
(§6) Preparation of Antimicrobial Susceptibility Testing Plates. Antimicrobial solutions are prepared at known concentrations. The specific antimicrobials and their concentrations are selected based on the pathogen of interest and the described antimicrobial resistance breakpoints for that specimen pathogen and antimicrobial combination. These antimicrobials have been selected based on those commonly utilized by healthcare providers in routine clinical care for the specific type of suspected infection. The number and types of antimicrobials utilized can be customized based on the infection source, pathogen detected, patient-specific factors such as allergies or other health conditions (e.g., chronic kidney disease or concurrent medication use), or healthcare provider preferences such as antimicrobial availability or cost.
(§7) The antimicrobial solutions are prepared in liquid culture media (such as Muller Hinton Broth) to achieve the desired antimicrobial concentration and are then stored at −80° C. until use. For a given specimen, each antimicrobial is tested at a single or multiple antimicrobial concentration(s) which is its established breakpoints for sensitivity. The antimicrobial solutions are prepared and plated out for each specific pathogen. […] This allows for evaluation of pathogen load when no antimicrobial is present.
(§8) Specimen Exposure to Antimicrobial Agents. The 1 mL aliquot of the specimen 100 previously mixed with culture media and incubated is obtained. Using optical density measurements as a guide, the specimen 100 is diluted to 0.5 McFarland.
(§9) Antimicrobial exposure plates are typically placed into an incubator for 12-16 hours.
(§10) Nucleic Acid Amplification of Antimicrobial Agent Exposed Pathogens. The antimicrobial exposure plate is removed after the period of incubation. The specimen then undergoes a purification or lysis step. […] Next, the specimen may undergo a polymerase chain reaction (PCR) testing protocol, whereby a semi-quantitative PCR method is utilized. […] The pathogens can be individually targeted and detected, or a universal genetic sequence can be utilized to detect the antimicrobial susceptibility of the specimen as a whole.

[2] = system: pathogens of clinical samples; experiment: Molecular phenotypic antimicrobial susceptibility test of clinical samples, direct PCR without a separate DNA purification step (Table 6); assay type: cell-based; conditions: for Molecular Antibiotic Susceptibility Result: E. faecalis
Experimental: as §3, §4, §5, §6, §7, §8, §9, §10

pathogen of the specimen = experiment: Traditional culture-based antimicrobial susceptibility test (comparison of Table 7); assay type: cell-based; conditions: E. coli isolate 1189
Experimental: Table 7 illustrates the results of an example antimicrobial agent susceptibility test of the current application versus a traditional culture-based antimicrobial agent susceptibility test at multiple incubation timepoints, in accordance with one or more embodiments of the disclosure. These specimens were tested with direct PCR (e.g., no extraction DNA purification step prior to PCR). […] Result Reporting to Healthcare Providers. The results from the antimicrobial exposure are reported to the ordering healthcare provider. This information can be utilized by the healthcare provider when selecting an antimicrobial regimen for their individual patient based on these individual specimen results and patient specific factors. […] The current standard of care for antimicrobial susceptibility testing involves the growth, isolation, and exposure of pathogens to antimicrobials. This traditional culture and sensitivity process can take multiple days to obtain results, limiting the ability of healthcare providers to receive timely results to make actionable changes in patient care or management. Healthcare providers desire a method to obtain antimicrobial susceptibility results with quicker turn-around-time. […]

C[C@H]1c2cccc(O)c2C(=O)C2=C(O)[C@]3(O)C(=O)C(C(N)=O)=C(O)[C@@H](N(C)C)[C@@H]3[C@@H](O)[C@@H]21 [Doxycycline]
Sensitive: Traditional Culture Results (Escherichia coli; E. coli #1 - WDCM 00090 - 6.2×E3) | Traditional Culture Results (Escherichia coli; E. coli #2 - WDCM 00090 - 6.2×E3)

C[C@H]1COc2c(N3CCN(C)CC3)c(F)cc3c(=O)c(C(=O)O)cn1c23 [Levofloxacin]
Resistant: Traditional Culture Result (Acinetobacter baumannii; A. baumannii isolate 1) | Traditional Culture Result (Acinetobacter baumannii; A. baumannii isolate 2) | Traditional Culture Result (Acinetobacter baumannii; A. baumannii isolate 3) | Traditional Culture Result (Acinetobacter baumannii; A. baumannii isolate 4) | Traditional Culture Result (Acinetobacter baumannii; A. baumannii isolate 5) | Traditional Culture Result (Escherichia coli; E. coli isolate 1 (Table 3)) | Traditional Culture Result (Escherichia coli; E. coli isolate 2 (Table 3)) | Traditional Culture Result (Escherichia coli; E. coli isolate 3 (Table 3)) | Traditional Culture Result (Escherichia coli; E. coli isolate 4 (Table 3)) | Traditional Culture Result (Escherichia coli; E. coli isolate JJ1887) | Traditional Culture Result (S. aureus) | Traditional Culture Result (P. aeruginosa)
Sensitive: Traditional Culture Result (Escherichia coli; E. coli isolate 5 (Table 3)) | Traditional Culture Result (pathogen of the specimen)
Undet: Ct ([1]; M. morganii, clinical sample of r55-r69, Ct Control Avg 28.86) | Ct ([2]; M. morganii, clinical sample of r55-r69, Ct control avg 12.09)
sensitive: Molecular Antibiotic Susceptibility Result ([1]; clinical sample of r100-r106) | Molecular Antibiotic Susceptibility Result ([1]; clinical sample of r107-r113) | Molecular Antibiotic Susceptibility Result ([2]; clinical sample of r100-r106) | Molecular Antibiotic Susceptibility Result ([2]; clinical sample of r107-r113)

CN(C)[C@@H]1C(O)=C(C(N)=O)C(=O)[C@@]2(O)C(O)=C3C(=O)c4c(O)cccc4[C@@](C)(O)[C@H]3C[C@@H]12 [Tetracycline]
Resistant: Traditional Culture Result (S. aureus)
sensitive: Molecular Antibiotic Susceptibility Result ([1]; clinical sample of r107-r113) | Molecular Antibiotic Susceptibility Result ([1]; clinical sample of r151-r157) | Molecular Antibiotic Susceptibility Result ([2]; clinical sample of r107-r113) | Molecular Antibiotic Susceptibility Result ([2]; clinical sample of r151-r157)

Reference: patent US20250290117A1, “MOLECULAR PHENOTYPIC ANTIMICROBIAL SUSCEPTIBILITY TESTING” (priority 2024, published 2025)
